# From the supplement of paper PMC10849652
# Chains of the proteins cited; added tags and fusions are not shown. Lines headed by an entry give the natural chain unless they say otherwise; changes in a name come on top.
# UniProt Q9P287, whole entry, looked up: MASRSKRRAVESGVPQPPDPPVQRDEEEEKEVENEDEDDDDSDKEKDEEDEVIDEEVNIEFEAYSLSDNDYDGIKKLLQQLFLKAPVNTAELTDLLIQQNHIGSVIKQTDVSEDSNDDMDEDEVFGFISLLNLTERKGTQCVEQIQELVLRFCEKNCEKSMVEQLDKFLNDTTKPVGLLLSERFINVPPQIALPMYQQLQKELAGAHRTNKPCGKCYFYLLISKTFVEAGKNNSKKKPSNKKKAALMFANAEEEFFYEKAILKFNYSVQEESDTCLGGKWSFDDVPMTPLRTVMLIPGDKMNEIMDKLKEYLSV
# UniProt O75882: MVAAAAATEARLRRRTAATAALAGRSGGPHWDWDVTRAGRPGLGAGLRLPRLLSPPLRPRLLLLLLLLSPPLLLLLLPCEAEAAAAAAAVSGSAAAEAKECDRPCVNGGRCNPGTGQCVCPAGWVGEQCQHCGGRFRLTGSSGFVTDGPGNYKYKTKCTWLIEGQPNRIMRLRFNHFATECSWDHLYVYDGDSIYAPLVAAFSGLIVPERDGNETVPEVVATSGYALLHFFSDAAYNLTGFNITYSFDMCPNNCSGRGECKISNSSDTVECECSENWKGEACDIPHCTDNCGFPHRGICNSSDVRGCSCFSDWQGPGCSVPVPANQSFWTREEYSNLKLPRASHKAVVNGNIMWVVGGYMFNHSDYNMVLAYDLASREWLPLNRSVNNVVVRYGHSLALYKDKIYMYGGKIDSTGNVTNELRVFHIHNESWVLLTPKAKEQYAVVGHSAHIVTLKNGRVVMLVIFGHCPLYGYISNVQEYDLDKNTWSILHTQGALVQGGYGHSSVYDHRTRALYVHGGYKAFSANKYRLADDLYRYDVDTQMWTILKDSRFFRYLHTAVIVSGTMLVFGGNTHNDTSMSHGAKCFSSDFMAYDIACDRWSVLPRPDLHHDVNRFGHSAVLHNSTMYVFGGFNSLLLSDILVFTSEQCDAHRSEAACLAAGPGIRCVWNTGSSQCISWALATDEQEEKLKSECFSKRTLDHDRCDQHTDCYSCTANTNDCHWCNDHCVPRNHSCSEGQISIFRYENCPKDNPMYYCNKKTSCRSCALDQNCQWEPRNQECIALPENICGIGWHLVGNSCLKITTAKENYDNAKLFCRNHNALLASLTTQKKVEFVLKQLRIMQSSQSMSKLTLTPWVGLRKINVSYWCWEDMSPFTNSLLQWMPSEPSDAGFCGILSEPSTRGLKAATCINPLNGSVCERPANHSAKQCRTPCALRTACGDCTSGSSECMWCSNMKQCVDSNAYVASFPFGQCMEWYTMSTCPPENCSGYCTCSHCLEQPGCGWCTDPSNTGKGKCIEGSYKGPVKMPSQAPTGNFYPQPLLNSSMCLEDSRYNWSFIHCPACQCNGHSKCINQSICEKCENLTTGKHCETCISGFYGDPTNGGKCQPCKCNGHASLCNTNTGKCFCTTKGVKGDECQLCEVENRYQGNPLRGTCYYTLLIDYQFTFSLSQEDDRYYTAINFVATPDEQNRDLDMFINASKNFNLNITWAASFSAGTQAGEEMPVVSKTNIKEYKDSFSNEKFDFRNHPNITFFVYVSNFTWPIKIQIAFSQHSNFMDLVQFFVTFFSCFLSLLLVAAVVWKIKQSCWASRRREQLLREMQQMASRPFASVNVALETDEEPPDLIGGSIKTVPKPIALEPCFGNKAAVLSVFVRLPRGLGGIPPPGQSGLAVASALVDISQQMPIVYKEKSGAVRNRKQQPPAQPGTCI
# UniProt Q7Z5W3: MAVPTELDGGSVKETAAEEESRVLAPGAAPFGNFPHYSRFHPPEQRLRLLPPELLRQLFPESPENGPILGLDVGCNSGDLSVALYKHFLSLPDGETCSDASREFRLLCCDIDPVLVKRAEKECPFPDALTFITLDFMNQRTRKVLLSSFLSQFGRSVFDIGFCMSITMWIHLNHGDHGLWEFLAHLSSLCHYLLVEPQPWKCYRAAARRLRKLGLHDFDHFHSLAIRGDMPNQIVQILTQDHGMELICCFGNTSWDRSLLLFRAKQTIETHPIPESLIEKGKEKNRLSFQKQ
# UniProt O15169, whole entry, looked up: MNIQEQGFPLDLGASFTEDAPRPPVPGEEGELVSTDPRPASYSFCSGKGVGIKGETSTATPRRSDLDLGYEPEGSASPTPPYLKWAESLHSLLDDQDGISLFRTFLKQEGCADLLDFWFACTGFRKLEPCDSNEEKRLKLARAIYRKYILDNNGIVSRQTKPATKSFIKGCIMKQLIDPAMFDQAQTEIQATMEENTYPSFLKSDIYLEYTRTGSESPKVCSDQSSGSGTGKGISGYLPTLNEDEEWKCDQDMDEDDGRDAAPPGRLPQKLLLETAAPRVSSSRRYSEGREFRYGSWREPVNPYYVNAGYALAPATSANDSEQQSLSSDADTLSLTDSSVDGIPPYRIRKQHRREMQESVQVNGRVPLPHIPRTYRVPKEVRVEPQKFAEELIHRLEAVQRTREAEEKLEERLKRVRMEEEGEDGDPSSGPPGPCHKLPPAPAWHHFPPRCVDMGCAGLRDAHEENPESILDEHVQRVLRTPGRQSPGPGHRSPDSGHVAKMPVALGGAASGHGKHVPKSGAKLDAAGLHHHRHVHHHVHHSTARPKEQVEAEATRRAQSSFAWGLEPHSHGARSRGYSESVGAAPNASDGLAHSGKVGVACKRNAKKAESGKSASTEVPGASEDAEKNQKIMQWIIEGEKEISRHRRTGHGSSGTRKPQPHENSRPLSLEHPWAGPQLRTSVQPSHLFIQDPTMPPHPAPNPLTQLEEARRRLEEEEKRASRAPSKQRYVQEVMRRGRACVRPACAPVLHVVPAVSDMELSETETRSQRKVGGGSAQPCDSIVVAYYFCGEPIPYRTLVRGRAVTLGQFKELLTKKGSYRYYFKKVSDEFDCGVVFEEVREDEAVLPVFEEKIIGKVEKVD
# UniProt Q9UIG0: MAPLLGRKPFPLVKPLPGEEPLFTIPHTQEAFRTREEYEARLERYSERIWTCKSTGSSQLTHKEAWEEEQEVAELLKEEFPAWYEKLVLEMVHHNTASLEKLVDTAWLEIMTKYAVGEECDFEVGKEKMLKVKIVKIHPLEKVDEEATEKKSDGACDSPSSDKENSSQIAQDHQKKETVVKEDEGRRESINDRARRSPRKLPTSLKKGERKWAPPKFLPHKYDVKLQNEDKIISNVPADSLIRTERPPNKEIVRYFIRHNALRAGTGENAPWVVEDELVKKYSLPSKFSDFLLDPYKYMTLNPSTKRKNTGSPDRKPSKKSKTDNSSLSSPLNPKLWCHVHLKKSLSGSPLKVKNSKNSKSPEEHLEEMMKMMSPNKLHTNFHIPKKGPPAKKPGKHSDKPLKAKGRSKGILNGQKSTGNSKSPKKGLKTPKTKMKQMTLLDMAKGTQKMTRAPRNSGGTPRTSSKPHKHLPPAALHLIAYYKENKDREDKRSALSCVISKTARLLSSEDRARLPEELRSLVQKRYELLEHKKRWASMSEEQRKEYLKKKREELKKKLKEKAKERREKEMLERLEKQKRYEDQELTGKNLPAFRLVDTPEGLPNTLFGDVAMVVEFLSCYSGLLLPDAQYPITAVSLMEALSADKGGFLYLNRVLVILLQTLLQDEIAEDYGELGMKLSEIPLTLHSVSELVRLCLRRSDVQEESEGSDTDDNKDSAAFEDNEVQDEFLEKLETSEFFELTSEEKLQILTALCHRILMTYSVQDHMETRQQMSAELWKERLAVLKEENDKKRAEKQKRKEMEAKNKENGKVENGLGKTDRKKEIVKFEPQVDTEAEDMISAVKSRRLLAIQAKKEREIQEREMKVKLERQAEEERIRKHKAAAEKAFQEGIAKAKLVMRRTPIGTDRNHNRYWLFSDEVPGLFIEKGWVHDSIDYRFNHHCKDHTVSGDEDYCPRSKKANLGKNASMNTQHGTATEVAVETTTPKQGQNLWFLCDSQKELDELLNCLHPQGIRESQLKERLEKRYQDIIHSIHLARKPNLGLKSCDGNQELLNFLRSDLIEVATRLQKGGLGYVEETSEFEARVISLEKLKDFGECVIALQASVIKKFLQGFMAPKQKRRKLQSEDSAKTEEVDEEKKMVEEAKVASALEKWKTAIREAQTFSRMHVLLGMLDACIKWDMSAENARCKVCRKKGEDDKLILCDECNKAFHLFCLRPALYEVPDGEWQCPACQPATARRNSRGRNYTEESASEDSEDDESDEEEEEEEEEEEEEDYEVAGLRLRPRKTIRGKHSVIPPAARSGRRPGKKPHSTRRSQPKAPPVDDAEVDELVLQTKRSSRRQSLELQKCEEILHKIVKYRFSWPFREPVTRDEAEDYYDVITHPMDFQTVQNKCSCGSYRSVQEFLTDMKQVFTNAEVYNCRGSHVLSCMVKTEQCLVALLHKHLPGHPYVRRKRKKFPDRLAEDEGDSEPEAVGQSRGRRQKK
# UniProt Q96IK1: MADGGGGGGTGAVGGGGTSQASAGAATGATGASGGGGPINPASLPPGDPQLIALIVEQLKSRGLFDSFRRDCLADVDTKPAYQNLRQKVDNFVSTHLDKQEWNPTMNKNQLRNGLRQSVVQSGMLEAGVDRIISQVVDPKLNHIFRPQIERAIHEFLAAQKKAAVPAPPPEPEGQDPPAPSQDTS
# UniProt Q9UL15: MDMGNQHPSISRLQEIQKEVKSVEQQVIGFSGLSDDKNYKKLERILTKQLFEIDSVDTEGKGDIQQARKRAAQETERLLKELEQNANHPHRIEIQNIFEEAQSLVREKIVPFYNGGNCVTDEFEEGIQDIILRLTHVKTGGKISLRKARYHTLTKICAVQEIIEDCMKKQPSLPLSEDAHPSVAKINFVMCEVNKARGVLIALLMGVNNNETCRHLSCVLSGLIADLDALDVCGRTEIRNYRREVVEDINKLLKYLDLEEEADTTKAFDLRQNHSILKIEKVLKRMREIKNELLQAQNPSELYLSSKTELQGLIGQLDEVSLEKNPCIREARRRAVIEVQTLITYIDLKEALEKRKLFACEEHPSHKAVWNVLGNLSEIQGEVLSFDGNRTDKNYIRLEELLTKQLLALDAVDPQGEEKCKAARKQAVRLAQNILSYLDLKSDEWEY
# UniProt Q9H2G9: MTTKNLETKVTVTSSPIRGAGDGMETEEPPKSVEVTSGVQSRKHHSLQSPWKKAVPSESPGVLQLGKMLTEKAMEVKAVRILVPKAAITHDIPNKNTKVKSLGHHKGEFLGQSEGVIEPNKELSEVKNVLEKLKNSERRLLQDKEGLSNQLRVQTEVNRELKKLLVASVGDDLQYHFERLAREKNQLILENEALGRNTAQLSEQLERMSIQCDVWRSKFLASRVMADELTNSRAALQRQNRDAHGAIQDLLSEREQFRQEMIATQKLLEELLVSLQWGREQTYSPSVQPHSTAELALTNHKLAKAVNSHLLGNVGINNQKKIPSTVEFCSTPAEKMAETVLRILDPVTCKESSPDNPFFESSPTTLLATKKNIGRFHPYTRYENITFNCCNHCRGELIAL
# UniProt Q9UQB8: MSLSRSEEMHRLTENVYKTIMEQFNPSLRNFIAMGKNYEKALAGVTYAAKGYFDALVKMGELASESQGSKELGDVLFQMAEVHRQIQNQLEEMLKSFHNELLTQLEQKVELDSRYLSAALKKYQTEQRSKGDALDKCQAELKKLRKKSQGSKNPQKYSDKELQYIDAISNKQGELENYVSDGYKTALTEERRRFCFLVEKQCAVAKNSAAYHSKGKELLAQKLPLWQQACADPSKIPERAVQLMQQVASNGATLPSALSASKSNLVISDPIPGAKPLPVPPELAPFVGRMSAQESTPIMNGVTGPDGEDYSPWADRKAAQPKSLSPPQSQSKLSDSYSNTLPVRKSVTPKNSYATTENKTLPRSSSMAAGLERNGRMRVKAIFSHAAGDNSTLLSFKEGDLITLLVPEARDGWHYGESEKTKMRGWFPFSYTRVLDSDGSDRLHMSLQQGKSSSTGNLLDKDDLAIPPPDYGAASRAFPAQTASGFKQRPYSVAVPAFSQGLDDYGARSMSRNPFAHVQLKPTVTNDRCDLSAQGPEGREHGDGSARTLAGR
# UniProt Q12983, whole entry, looked up: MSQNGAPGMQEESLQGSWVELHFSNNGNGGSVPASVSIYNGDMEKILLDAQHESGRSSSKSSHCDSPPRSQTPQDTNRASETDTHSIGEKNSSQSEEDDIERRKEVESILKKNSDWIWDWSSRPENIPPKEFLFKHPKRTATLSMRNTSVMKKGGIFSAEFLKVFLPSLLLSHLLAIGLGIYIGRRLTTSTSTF
# UniProt Q14CW9: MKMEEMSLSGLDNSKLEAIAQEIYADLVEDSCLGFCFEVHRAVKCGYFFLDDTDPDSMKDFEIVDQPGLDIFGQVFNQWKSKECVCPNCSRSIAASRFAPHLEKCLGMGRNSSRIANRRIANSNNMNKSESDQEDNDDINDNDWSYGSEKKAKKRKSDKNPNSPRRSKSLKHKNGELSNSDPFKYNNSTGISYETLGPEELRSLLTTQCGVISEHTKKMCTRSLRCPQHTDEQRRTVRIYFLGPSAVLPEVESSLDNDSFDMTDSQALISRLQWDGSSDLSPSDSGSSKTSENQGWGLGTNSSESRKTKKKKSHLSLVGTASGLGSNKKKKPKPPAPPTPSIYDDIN
# This is one part of the list.
# What was measured:
# Test in all cases: log2 fold change, soluble protein after heating vs DMSO (PISA); higher = thermal stabilisation; K562 cells, 10 uM, 30 min; active = over 0.2 and 3.5 SD of the protein, either way, in both replicates (recomputed)
# [1] = compound: CN1CCN(CCOc2cc(OC3CCOCC3)c3c(Nc4c(Cl)ccc5c4OCO5)ncnc3c2)CC1 [saracatinib]
# Outline: (§1)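 K562 cells at 2×10^6 cells/mL were given 10 μM compound for 30 min. Aliquots then went through 3 min of heating across 48°C-58°C, were pooled, and were extracted in PBS with 0.5% NP-40 at 4°C, and the supernatant after 21,000xg for 90 min was quantified by TMTpro 16plex LC-MS/MS with channel sums equalised. Thermal stability relative to control samples, from duplicates, is given as log2 fold change.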
# [2] = compound: CN1CCN(c2nc(C3=C(c4c[nH]c5ccccc45)C(=O)NC3=O)c3ccccc3n2)CC1 [sotrastaurin]
# Outline: as §1
# [3] = compound: CN1CCc2c(c3ccccc3n2Cc2ccc(C(=O)NO)cc2)C1 [Tubastatin A]
# Outline: as §1
# [4] = compound: CNC(=O)C1=CC=CC=C1NC2=NC(=NC=C2Cl)NC3=C(C=C(C=C3)N4CCOCC4)OC
# Outline: as §1
# [5] = compound: CNC(=O)c1ccc(Nc2ncc(C(F)(F)F)c(NCc3nccnc3N(C)S(C)(=O)=O)n2)cc1 [defactinib]
# Outline: as §1
# [6] = compound: CNCc1ccc(-c2[nH]c3cc(F)cc4c3c2CCNC4=O)cc1 [rucaparib]
# Outline: as §1
# [7] = compound: CNc1nc(-c2ccc3c(N)n[nH]c3c2)cc(N2C[C@@H](C(=O)NC3CCCCC3)CC[C@H]2C)n1
# Outline: as §1
# [8] = compound: COC(=O)N[C@@H](C)CNc1nccc(-c2cn(C(C)C)nc2-c2cc(Cl)cc(NS(C)(=O)=O)c2F)n1 [encorafenib]
# Outline: as §1
# [9] = compound: COC(=O)[C@H](CCSC)NC(=O)C1=C(C=C(C=C1)NC[C@H](CS)N)C2=CC=CC=C2
# Outline: as §1
# [10] = compound: CN1CC[C@H](c2c(O)cc(O)c3c(=O)cc(-c4ccccc4Cl)oc23)[C@H](O)C1 [alvocidib]
# Outline: as §1
target,measurement,setting,value
BCCIP (UniProt Q9P287),log2 fold change,[1],inactive: -0.132
same,log2 fold change,[2],inactive: 0
same,log2 fold change,[3],inactive: -0.045
same,log2 fold change,[4],inactive: -0.013
same,log2 fold change,[5],inactive: 0.072
same,log2 fold change,[6],inactive: 0.165
same,log2 fold change,[7],inactive: 0.02
same,log2 fold change,[8],inactive: 0.076
same,log2 fold change,[9],inactive: -0.049
ATRN (UniProt O75882),log2 fold change,[1],inactive: 0.05
same,log2 fold change,[2],inactive: -0.047
same,log2 fold change,[3],inactive: 0.012
same,log2 fold change,[4],inactive: -0.017
same,log2 fold change,[5],inactive: -0.065
same,log2 fold change,[6],inactive: 0.022
same,log2 fold change,[7],inactive: 0.12
same,log2 fold change,[8],inactive: -0.05
same,log2 fold change,[9],inactive: 0.045
BID isoform 2 (UniProt P55957),log2 fold change,[1],inactive: 0.008
same,log2 fold change,[2],inactive: 0.04
same,log2 fold change,[3],inactive: 0.076
same,log2 fold change,[4],inactive: -0.053
same,log2 fold change,[5],inactive: -0.031
same,log2 fold change,[6],inactive: 0.033
same,log2 fold change,[7],inactive: -0.017
same,log2 fold change,[8],inactive: -0.011
same,log2 fold change,[9],inactive: -0.032
BRIX1 (UniProt Q8TDN6),log2 fold change,[1],inactive: -0.106
same,log2 fold change,[2],inactive: -0.051
same,log2 fold change,[3],inactive: 0.2
same,log2 fold change,[4],inactive: -0.154
same,log2 fold change,[5],inactive: 0.394
same,log2 fold change,[6],inactive: 0.253
same,log2 fold change,[7],inactive: 0.129
same,log2 fold change,[8],inactive: 0.123
same,log2 fold change,[9],inactive: 0.017
BAD (UniProt Q92934),log2 fold change,[1],inactive: 0.021
same,log2 fold change,[2],inactive: 0.273
same,log2 fold change,[4],inactive: -0.032
same,log2 fold change,[5],inactive: 0.03
same,log2 fold change,[6],inactive: 0.032
same,log2 fold change,[7],inactive: -0.016
same,log2 fold change,[8],inactive: -0.047
same,log2 fold change,[9],inactive: -0.004
BSCL2 isoform 4 (UniProt Q96G97),log2 fold change,[1],inactive: -0.019
same,log2 fold change,[3],inactive: 0.03
same,log2 fold change,[4],inactive: -0.025
same,log2 fold change,[5],inactive: -0.113
same,log2 fold change,[7],inactive: -0.122
same,log2 fold change,[9],inactive: -0.071
BNIP3L (UniProt O60238),log2 fold change,[1],inactive: 0.106
same,log2 fold change,[10],inactive: 0.085
same,log2 fold change,[3],inactive: 0.152
same,log2 fold change,[4],inactive: 0.002
same,log2 fold change,[5],inactive: -0.141
same,log2 fold change,[6],inactive: -0.102
same,log2 fold change,[7],inactive: -0.075
same,log2 fold change,[8],inactive: 0.107
same,log2 fold change,[9],inactive: 0.25
AURKB isoform 5 (UniProt Q96GD4),log2 fold change,[1],inactive: -0.148
same,log2 fold change,[3],inactive: -0.117
same,log2 fold change,[5],inactive: 0.824
same,log2 fold change,[6],inactive: 0.418
same,log2 fold change,[7],inactive: 0.396
same,log2 fold change,[8],inactive: 0.225
same,log2 fold change,[9],inactive: 0.006
BMP1 (UniProt P13497),log2 fold change,[4],inactive: -0.245
B3GALNT2 (UniProt Q8NCR0),log2 fold change,[2],inactive: 0.08
same,log2 fold change,[3],inactive: -0.052
same,log2 fold change,[4],inactive: -0.125
same,log2 fold change,[5],inactive: 0.053
same,log2 fold change,[6],inactive: -0.059
same,log2 fold change,[8],inactive: 0.029
same,log2 fold change,[9],inactive: 0.06
B3GALT6 (UniProt Q96L58),log2 fold change,[4],inactive: -0.01
BCDIN3D (UniProt Q7Z5W3),log2 fold change,[10],inactive: -0.14
same,log2 fold change,[3],inactive: 0.033
same,log2 fold change,[6],inactive: 0.006
same,log2 fold change,[8],inactive: -0.066
BORA (UniProt Q6PGQ7),log2 fold change,[2],inactive: -0.218
BIN1 (UniProt O00499),log2 fold change,[5],inactive: 0.06
same,log2 fold change,[9],inactive: 0.145
BORCS8 (UniProt Q96FH0),log2 fold change,[3],inactive: -0.059
same,log2 fold change,[6],inactive: 0.341
same,log2 fold change,[8],inactive: -0.362
BCL7A isoform 2 (UniProt Q4VC05),log2 fold change,[2],inactive: 0.115
same,log2 fold change,[3],inactive: -0.004
same,log2 fold change,[4],inactive: -0.119
same,log2 fold change,[6],inactive: 0.077
same,log2 fold change,[8],inactive: -0.065
BAHD1 (UniProt Q8TBE0),log2 fold change,[4],inactive: -0.061
same,log2 fold change,[6],inactive: -0.133
same,log2 fold change,[8],inactive: 0.229
B3GNT8 (UniProt Q7Z7M8),log2 fold change,[2],inactive: -0.016
AXIN1 (UniProt O15169),log2 fold change,[5],inactive: -0.231
same,log2 fold change,[9],inactive: 0
"BRAF, A0A2R8Y8E0",log2 fold change,[3],inactive: -0.084
same,log2 fold change,[4],inactive: 0.143
BPIFA1 (UniProt Q9NP55),log2 fold change,[2],inactive: -0.024
same,log2 fold change,[6],inactive: 0.325
same,log2 fold change,[8],inactive: -0.242
BAZ1B (UniProt Q9UIG0),log2 fold change,[2],inactive: -0.02
same,log2 fold change,[10],inactive: 0.038
same,log2 fold change,[5],inactive: -0.006
same,log2 fold change,[6],inactive: -0.013
same,log2 fold change,[8],inactive: 0.103
same,log2 fold change,[9],inactive: 0.023
BOD1 (UniProt Q96IK1),log2 fold change,[4],inactive: -0.077
ATXN2L (UniProt H3BUF6),log2 fold change,[6],inactive: 0.184
same,log2 fold change,[8],inactive: -0.026
BFAR (UniProt Q9NZS9),log2 fold change,[5],inactive: 0.023
same,log2 fold change,[9],inactive: 0.041
ATRX (UniProt P46100),log2 fold change,[10],inactive: -0.089
BPIFB1 (UniProt Q8TDL5),log2 fold change,[2],inactive: -0.071
same,log2 fold change,[6],inactive: -0.015
same,log2 fold change,[8],inactive: 0.137
B4GALT2 isoform 3 (UniProt O60909),log2 fold change,[2],inactive: -0.191
BAG5 isoform 2 (UniProt Q9UL15),log2 fold change,[2],inactive: -0.042
same,log2 fold change,[10],inactive: -0.178
same,log2 fold change,[3],inactive: 0.029
same,log2 fold change,[4],inactive: 0.095
same,log2 fold change,[5],inactive: -0.102
same,log2 fold change,[6],inactive: 0.023
same,log2 fold change,[8],inactive: -0.041
same,log2 fold change,[9],inactive: -0.073
BLZF1 (UniProt Q9H2G9),log2 fold change,[2],inactive: -0.146
same,log2 fold change,[10],inactive: -0.087
B4GALT4 (UniProt O60513),log2 fold change,[2],inactive: -0.093
BAP18 isoform 3 (UniProt Q8IXM2),log2 fold change,[3],inactive: 0.301
same,log2 fold change,[4],inactive: -0.129
BCL7C isoform 2 (UniProt Q8WUZ0),log2 fold change,[2],inactive: 0.03
same,log2 fold change,[10],inactive: -0.146
same,log2 fold change,[4],inactive: -0.058
ATXN3 isoform 1 (UniProt P54252),log2 fold change,[3],inactive: 0.138
same,log2 fold change,[4],inactive: -0.03
same,log2 fold change,[5],inactive: -0.119
same,log2 fold change,[6],inactive: -0.015
same,log2 fold change,[8],inactive: 0.085
same,log2 fold change,[9],inactive: 0.018
BAIAP2 isoform 4 (UniProt Q9UQB8),log2 fold change,[2],inactive: 0.147
same,log2 fold change,[3],inactive: 0.288
BPNT1 (UniProt A6NF51),log2 fold change,[3],inactive: -0.034
same,log2 fold change,[4],inactive: -0.14
same,log2 fold change,[5],inactive: 0
same,log2 fold change,[6],inactive: -0.06
same,log2 fold change,[8],inactive: 0.047
same,log2 fold change,[9],inactive: -0.019
AZI2 (UniProt Q9H6S1),log2 fold change,[2],inactive: -0.046
same,log2 fold change,[3],inactive: -0.078
same,log2 fold change,[4],active: 0.453
same,log2 fold change,[5],inactive: 0.018
same,log2 fold change,[6],inactive: -0.12
same,log2 fold change,[8],inactive: 0.012
same,log2 fold change,[9],inactive: -0.093
BRCA1 isoform 7 (UniProt P38398),log2 fold change,[2],inactive: 0.126
same,log2 fold change,[4],inactive: -0.254
same,log2 fold change,[5],inactive: -0.159
same,log2 fold change,[9],inactive: 0.15
BNIP3 (UniProt Q12983),log2 fold change,[2],inactive: 0.04
same,log2 fold change,[3],inactive: 0.204
same,log2 fold change,[5],inactive: -0.003
same,log2 fold change,[6],inactive: -0.047
same,log2 fold change,[8],inactive: 0.054
same,log2 fold change,[9],inactive: -0.038
BNIP2 (UniProt H7C096),log2 fold change,[4],inactive: -0.078
same,log2 fold change,[6],inactive: -0.119
same,log2 fold change,[8],inactive: 0.235
ATXN7L3 isoform 2 (UniProt Q14CW9),log2 fold change,[2],inactive: 0.098
same,log2 fold change,[4],inactive: -0.038
same,log2 fold change,[6],active: 0.669
same,log2 fold change,[8],inactive: 0

# A section from the list above, for reference:
target,measurement,setting,value
BAG5 isoform 2 (UniProt Q9UL15),log2 fold change,[6],inactive: 0.023
same,log2 fold change,[8],inactive: -0.041
same,log2 fold change,[9],inactive: -0.073
BLZF1 (UniProt Q9H2G9),log2 fold change,[2],inactive: -0.146
same,log2 fold change,[10],inactive: -0.087

# Given tab-delimited: entries from further up.
target	measurement	setting	value
BAG5 isoform 2 (UniProt Q9UL15)	log2 fold change	[6]	inactive: 0.023
AZI2 (UniProt Q9H6S1)	log2 fold change	[4]	active: 0.453
same	log2 fold change	[6]	inactive: -0.12
BNIP2 (UniProt H7C096)	log2 fold change	[4]	inactive: -0.078

# Part of the list above, with bars between the fields.
target | measurement | setting | value
ATRN (UniProt O75882) | log2 fold change | [3] | inactive: 0.012
BRIX1 (UniProt Q8TDN6) | log2 fold change | [8] | inactive: 0.123
AURKB isoform 5 (UniProt Q96GD4) | log2 fold change | [3] | inactive: -0.117
